Literature values, collected in patent US7291469B2, “Mutant met and uses therefor” (The Regents of the University of California, priority 2004, dated 2007).
Some of these results come from one statement about several compounds together.

Test system: OSA
Details: adjuvant chemotherapy after removal of primary tumor; amputation alone 3-4 months; cited from earlier work

Question: With `COc1cccc2c1C(=O)c1c(O)c3c(c(O)c1C2=O)C[C@@](O)(C(=O)CO)C[C@@H]3O[C@H]1C[C@H](N)[C@H](O)[C@H](C)O1` [adriamycin] as the molecule, how does the survival time read?
Answer: 8-12 months
